From the supplement of paper PMC8728848
The list shows a part of the results.

Key:
Assay in all cases: glycan array binding signal (z-score within array); higher = stronger binding
Conditions in all cases: glycan notation: IUPAC condensed, linker removed
[1] = molecular target: GlcNAc(b1-3)Gal(b1-4)GlcNAc(b1-3)Gal(b1-4)GlcNAc(b1-2)[GlcNAc(b1-3)Gal(b1-4)GlcNAc(b1-3)Gal(b1-4)GlcNAc(b1-6)]Man(a1-6)[GlcNAc(b1-3)Gal(b1-4)GlcNAc(b1-3)Gal(b1-4)GlcNAc(b1-2)Man(a1-3)]Man(b1-4)GlcNAc(b1-4)[Fuc(a1-6)]GlcNAc
Method in brief: (§1)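 Glycan array data came from 3228 arrays in the Consortium for Functional Glycomics database, and only arrays with an available protein sequence were kept. Glycan names were put into IUPAC-condensed notation, and columns mapping to the same glycan were averaged. The binding signal is a within-array Z-score, averaged across arrays of one protein sequence run at different concentrations or buffers and across linkers. A negative Z-score can be read as non-binding.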

[2] = molecular target: GlcNAc(b1-3)Gal(b1-4)GlcNAc(b1-3)Gal(b1-4)GlcNAc(b1-3)Gal(b1-4)GlcNAc(b1-2)Man(a1-3)[GlcNAc(b1-3)Gal(b1-4)GlcNAc(b1-3)Gal(b1-4)GlcNAc(b1-3)Gal(b1-4)GlcNAc(b1-2)Man(a1-6)]Man(b1-4)GlcNAc(b1-4)GlcNAc
Method in brief: as §1

[3] = molecular target: GlcNAc(b1-3)Gal(b1-4)GlcNAc(b1-3)Gal(b1-4)GlcNAc(b1-3)Gal(b1-4)GlcNAc(b1-2)Man(a1-3)[GlcNAc(b1-3)Gal(b1-4)GlcNAc(b1-3)Gal(b1-4)GlcNAc(b1-3)Gal(b1-4)GlcNAc(b1-2)Man(a1-6)]Man(b1-4)GlcNAc(b1-4)[Fuc(a1-6)]GlcNAc
Method in brief: as §1

[4] = molecular target: GlcNAc(b1-3)Gal(b1-4)GlcNAc(b1-3)Gal(b1-4)GlcNAc(b1-3)Gal(b1-4)GlcNAc(b1-2)[GlcNAc(b1-3)Gal(b1-4)GlcNAc(b1-3)Gal(b1-4)GlcNAc(b1-3)Gal(b1-4)GlcNAc(b1-6)]Man(a1-6)[GlcNAc(b1-3)Gal(b1-4)GlcNAc(b1-3)Gal(b1-4)GlcNAc(b1-3)Gal(b1-4)GlcNAc(b1-2)Man(a1-3)]Man(b1-4)GlcNAc(b1-4)[Fuc(a1-6)]GlcNAc
Method in brief: as §1

[5] = molecular target: GlcNAc(b1-3)Gal(b1-4)GlcNAc(b1-3)Gal(b1-4)GlcNAc(b1-3)Gal(b1-4)GlcNAc(b1-3)Gal(b1-4)GlcNAc(b1-2)Man(a1-3)[GlcNAc(b1-3)Gal(b1-4)GlcNAc(b1-3)Gal(b1-4)GlcNAc(b1-3)Gal(b1-4)GlcNAc(b1-3)Gal(b1-4)GlcNAc(b1-2)Man(a1-6)]Man(b1-4)GlcNAc(b1-4)GlcNAc
Method in brief: as §1

[6] = molecular target: GlcNAc(b1-3)Gal(b1-4)GlcNAc(b1-3)Gal(b1-4)GlcNAc(b1-3)Gal(b1-4)GlcNAc(b1-3)Gal(b1-4)GlcNAc(b1-2)Man(a1-3)[GlcNAc(b1-3)Gal(b1-4)GlcNAc(b1-3)Gal(b1-4)GlcNAc(b1-3)Gal(b1-4)GlcNAc(b1-3)Gal(b1-4)GlcNAc(b1-2)Man(a1-6)]Man(b1-4)GlcNAc(b1-4)[Fuc(a1-6)]GlcNAc
Method in brief: as §1

[7] = molecular target: GlcNAc(b1-3)Gal(b1-4)GlcNAc(b1-3)Gal(b1-4)GlcNAc(b1-3)Gal(b1-4)GlcNAc(b1-3)Gal(b1-4)GlcNAc(b1-2)[GlcNAc(b1-3)Gal(b1-4)GlcNAc(b1-3)Gal(b1-4)GlcNAc(b1-3)Gal(b1-4)GlcNAc(b1-3)Gal(b1-4)GlcNAc(b1-6)]Man(a1-6)[GlcNAc(b1-3)Gal(b1-4)GlcNAc(b1-3)Gal(b1-4)GlcNAc(b1-3)Gal(b1-4)GlcNAc(b1-3)Gal(b1-4)GlcNAc(b1-2)Man(a1-3)]Man(b1-4)GlcNAc(b1-4)[Fuc(a1-6)]GlcNAc
Method in brief: as §1

[8] = molecular target: GlcNAc(b1-3)Gal(b1-4)GlcNAc(b1-3)Gal(b1-4)GlcNAc(b1-3)GalNAc
Method in brief: as §1

[9] = molecular target: GlcNAc(b1-3)Gal(b1-4)GlcNAc(b1-3)GalNAc
Method in brief: as §1

[10] = molecular target: GlcNAc(b1-3)Gal(b1-4)GlcNAc(b1-3)[GlcNAc(b1-3)Gal(b1-4)GlcNAc(b1-3)]GalNAc
Method in brief: as §1

[11] = molecular target: GlcNAc(b1-3)Gal(b1-4)GlcNAc(b1-6)[Gal(b1-3)]GalNAc
Method in brief: as §1

[12] = molecular target: GlcNAc(b1-3)Gal(b1-4)GlcNAc(b1-6)[GlcNAc(b1-3)Gal(b1-3)]GalNAc
Method in brief: as §1

[13] = molecular target: GlcNAc(b1-3)Gal(b1-4)GlcNAc(b1-6)[GlcNAc(b1-3)]Gal(b1-4)GlcNAc
Method in brief: as §1

GlcNAc(b1-3)GalNAc = molecular target: GlcNAc(b1-3)GalNAc
Method in brief: as §1

GlcNAc(b1-3)Man = molecular target: GlcNAc(b1-3)Man
Method in brief: as §1

[14] = molecular target: GlcNAc(b1-3)[GlcNAc(b1-4)][GlcNAc(b1-6)]GlcNAc
Method in brief: as §1

[15] = molecular target: GlcNAc(b1-3)[GlcNAc(b1-6)]Gal(b1-4)GlcNAc
Method in brief: as §1

[16] = molecular target: GlcNAc(b1-3)[GlcNAc(b1-6)]GalNAc
Method in brief: as §1

[17] = molecular target: GlcNAc(b1-4)Gal(b1-4)GlcNAc
Method in brief: as §1

GlcNAc(b1-4)GlcNAc = molecular target: GlcNAc(b1-4)GlcNAc
Method in brief: as §1

[18] = molecular target: GlcNAc(b1-4)GlcNAc(b1-4)GlcNAc
Method in brief: as §1

[19] = molecular target: GlcNAc(b1-4)GlcNAc(b1-4)GlcNAc(b1-4)GlcNAc(b1-4)GlcNAc
Method in brief: as §1

[20] = molecular target: GlcNAc(b1-4)GlcNAc(b1-4)GlcNAc(b1-4)GlcNAc(b1-4)GlcNAc(b1-4)GlcNAc
Method in brief: as §1

[21] = molecular target: GlcNAc(b1-4)[GlcNAc(b1-6)]GalNAc
Method in brief: as §1

[22] = molecular target: GlcNAc(b1-6)Gal(b1-4)GlcNAc
Method in brief: as §1

GlcNAc(b1-6)GalNAc = molecular target: GlcNAc(b1-6)GalNAc
Method in brief: as §1

[23] = molecular target: GlcNAc6S(b1-3)Gal(b1-4)GlcNAc
Method in brief: as §1

Kdn(a2-3)Gal(b1-3)GalNAc = molecular target: Kdn(a2-3)Gal(b1-3)GalNAc
Method in brief: as §1

Kdn(a2-3)Gal(b1-3)GlcNAc = molecular target: Kdn(a2-3)Gal(b1-3)GlcNAc
Method in brief: as §1

Kdn(a2-3)Gal(b1-4)Glc = molecular target: Kdn(a2-3)Gal(b1-4)Glc
Method in brief: as §1

Kdn(a2-3)Gal(b1-4)GlcNAc = molecular target: Kdn(a2-3)Gal(b1-4)GlcNAc
Method in brief: as §1

[24] = molecular target: Kdn(a2-3)Gal(b1-4)[Fuc(a1-3)]GlcNAc
Method in brief: as §1

Kdn(a2-6)Gal(b1-4)GlcNAc = molecular target: Kdn(a2-6)Gal(b1-4)GlcNAc
Method in brief: as §1

[25] = molecular target: Man(a1-2)Man(a1-2)Man(a1-3)Man
Method in brief: as §1

[26] = molecular target: Man(a1-2)Man(a1-2)Man(a1-6)[Man(a1-3)]Man
Method in brief: as §1

Man(a1-2)Man(a1-3)Man = molecular target: Man(a1-2)Man(a1-3)Man
Method in brief: as §1

[27] = molecular target: Man(a1-2)Man(a1-3)[Man(a1-2)Man(a1-6)]Man
Method in brief: as §1

[28] = molecular target: Man(a1-2)Man(a1-3)[Man(a1-2)Man(a1-6)]Man(a1-6)[Man(a1-2)Man(a1-2)Man(a1-3)]Man
Method in brief: as §1

B1: Epf (Streptococcus pyogenes) (protein)
chain: GDHGPEFNGVMVVKAAEAEELPDDLMNFKGTWEVSADGSSGRFFSKGATDSYVFHLIPAKDVKKPGWREHNEVKDSYIKIDKQSIAARYKTSTTAPYSVAFKVNTKSLIKDHDYKITFEQGQIASGITVDYRIGSAFNKTTDDSFKISDESKYASNVKIEGEEQGFKQREQGDKTISFRTLKEGPMSLVLLSKVEKKPQGDLDVEFKNLKIIDVTNPSQLDKGVAYVGNKNVQLTLKSDDGRTNFEGDEISLFNSRGELLQTVTVTKDQQNPISITLSEDQAKSLKNKEKLKVSIKQKQSKKTSKDFFFEVGIDPKVEAKQKEKLLELDKVKKQIEDSINGDAWLPEKPVDLQGDHGLSAWSHPQFEK
[1]
  glycan array binding signal (z-score): 0.082
[2]
  glycan array binding signal (z-score): -0.168
[3]
  glycan array binding signal (z-score): 2.18
[4]
  glycan array binding signal (z-score): 2.85
[5]
  glycan array binding signal (z-score): 0.234
[6]
  glycan array binding signal (z-score): -0.75
[7]
  glycan array binding signal (z-score): -0.117
[8]
  glycan array binding signal (z-score): -0.246
[9]
  glycan array binding signal (z-score): -0.778
[10]
  glycan array binding signal (z-score): 0.25
[11]
  glycan array binding signal (z-score): -0.831
[12]
  glycan array binding signal (z-score): 0.445
[13]
  glycan array binding signal (z-score): 0.29
GlcNAc(b1-3)GalNAc
  glycan array binding signal (z-score): -0.705
GlcNAc(b1-3)Man
  glycan array binding signal (z-score): 0.194
[14]
  glycan array binding signal (z-score): -0.367
[15]
  glycan array binding signal (z-score): 2.09
[16]
  glycan array binding signal (z-score): 0.066
[17]
  glycan array binding signal (z-score): -0.031
GlcNAc(b1-4)GlcNAc
  glycan array binding signal (z-score): -1.32
[18]
  glycan array binding signal (z-score): -0.513
[19]
  glycan array binding signal (z-score): -0.915
[20]
  glycan array binding signal (z-score): -1.1
[21]
  glycan array binding signal (z-score): 3.11
[22]
  glycan array binding signal (z-score): -0.433
GlcNAc(b1-6)GalNAc
  glycan array binding signal (z-score): 1.21
[23]
  glycan array binding signal (z-score): 1.98
Kdn(a2-3)Gal(b1-3)GalNAc
  glycan array binding signal (z-score): 0.837
Kdn(a2-3)Gal(b1-3)GlcNAc
  glycan array binding signal (z-score): 0.078
Kdn(a2-3)Gal(b1-4)Glc
  glycan array binding signal (z-score): 0.077
Kdn(a2-3)Gal(b1-4)GlcNAc
  glycan array binding signal (z-score): 0.508
[24]
  glycan array binding signal (z-score): -0.049
Kdn(a2-6)Gal(b1-4)GlcNAc
  glycan array binding signal (z-score): 0.586
[25]
  glycan array binding signal (z-score): -0.882
[26]
  glycan array binding signal (z-score): 1.01
Man(a1-2)Man(a1-3)Man
  glycan array binding signal (z-score): -0.554
[27]
  glycan array binding signal (z-score): -0.611
[28]
  glycan array binding signal (z-score): -0.339
